Test results: patent US12226382B2, “Methods for treating microglial dysfunction” (Washington University, priority 2017, dated 2025)
At least one structure is not confirmed: it was looked up by name or label, or the drawing left a doubt.

Tested on: PI3-K
Assay: PI3-K inhibition in BMDM, immunoblots of mTOR pathway phosphorylation
Format: cell-based, mouse
Conditions: WT BMDMs, inhibitor for 3 hours prior to harvest

| SMILES | phosphorylation of mTOR and its downstream targets |
| --- | --- |
| O=c1cc(N2CCOCC2)oc2c(-c3ccccc3)cccc12 [LY294002] | major reduction |
| COC[C@H]1OC(=O)c2coc3c2[C@@]1(C)C1=C(C3=O)[C@@H]2CCC(=O)[C@@]2(C)C[C@H]1OC(C)=O [wortmannin] | major reduction |
